No constants are given. Whether binding was seen depends on the method and setting. Binding seen in cells or lysates may run through a third protein. Some binding calls cover weakened binding; strength is not graded here. For part of these data: Where a sequence is shown, tags or fusion partners need not be part of it.
B1: TANK (protein, UniProt P70347 1-448)
chain: MSLKRHSLRRNACHLETRAGIPTILYSDATGQRGMDKNIGEQLNRAYEAFRQACMDRDSAVRELQQKQTENYEQRIREQQEQLSFQQNLIDRLKSQLLLVDSSRDNSYGYVPLLEDSDRRKNNLTLDEPHDKVKLGTLRDKQSKVRRQEVSSGKESAKGLNIPLHHERDNIEKTFWDLKEEFHRICLLAKAQKDHLSKLNIPDIATDTQCSVPIQCTDKTEKQEALFKPQAKDDINRGMSCVTAVTPRGLGRDEEDTSFESLSKFNVKFPPMDNDSIFLHSTPEAPSILAPATPETVCQDRFNMEVRDNPGNFVKTEETLFEIQGIDPITSAIQNLKTTDKTNPSNLRATCLPAGDHNVFYVNTFPLQDPPDAPFPSLDSPGKAVRGPQQPFWKPFLNQDTDLVVPSDSDSELLKPLVCEFCQELFPPSITSRGDFLRHLNTHFNGET

The chains behind the UniProt entries cited, without tags or fusion partners. Where a name states a change or a piece, a line headed by the entry shows the natural chain unless it says otherwise. Residues count along the entry.
UniProt P70191: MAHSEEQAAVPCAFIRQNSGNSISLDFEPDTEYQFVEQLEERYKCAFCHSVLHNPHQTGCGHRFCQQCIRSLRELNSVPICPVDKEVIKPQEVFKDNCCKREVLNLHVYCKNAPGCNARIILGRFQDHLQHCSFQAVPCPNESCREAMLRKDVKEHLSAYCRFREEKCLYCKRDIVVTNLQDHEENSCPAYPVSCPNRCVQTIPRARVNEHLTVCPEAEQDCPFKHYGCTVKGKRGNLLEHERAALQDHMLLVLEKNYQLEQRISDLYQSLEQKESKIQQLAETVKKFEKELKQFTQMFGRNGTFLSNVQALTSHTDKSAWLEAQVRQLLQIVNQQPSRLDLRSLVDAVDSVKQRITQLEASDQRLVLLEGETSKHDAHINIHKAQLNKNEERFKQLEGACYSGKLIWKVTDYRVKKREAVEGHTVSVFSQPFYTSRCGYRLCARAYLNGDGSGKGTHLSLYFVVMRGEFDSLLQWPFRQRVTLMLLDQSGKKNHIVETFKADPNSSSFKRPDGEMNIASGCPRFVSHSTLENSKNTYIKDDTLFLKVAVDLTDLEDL
UniProt Q9Y6K9, residues 86-419: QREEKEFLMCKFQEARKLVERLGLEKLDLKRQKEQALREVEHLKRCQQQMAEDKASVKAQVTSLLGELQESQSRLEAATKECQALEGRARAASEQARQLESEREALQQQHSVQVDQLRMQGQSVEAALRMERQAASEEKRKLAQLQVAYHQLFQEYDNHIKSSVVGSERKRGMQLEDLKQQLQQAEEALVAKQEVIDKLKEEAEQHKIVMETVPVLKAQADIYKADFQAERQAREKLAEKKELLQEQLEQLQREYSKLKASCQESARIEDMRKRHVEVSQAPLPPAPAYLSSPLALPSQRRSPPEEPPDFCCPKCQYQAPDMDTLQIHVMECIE
UniProt Q7Z434: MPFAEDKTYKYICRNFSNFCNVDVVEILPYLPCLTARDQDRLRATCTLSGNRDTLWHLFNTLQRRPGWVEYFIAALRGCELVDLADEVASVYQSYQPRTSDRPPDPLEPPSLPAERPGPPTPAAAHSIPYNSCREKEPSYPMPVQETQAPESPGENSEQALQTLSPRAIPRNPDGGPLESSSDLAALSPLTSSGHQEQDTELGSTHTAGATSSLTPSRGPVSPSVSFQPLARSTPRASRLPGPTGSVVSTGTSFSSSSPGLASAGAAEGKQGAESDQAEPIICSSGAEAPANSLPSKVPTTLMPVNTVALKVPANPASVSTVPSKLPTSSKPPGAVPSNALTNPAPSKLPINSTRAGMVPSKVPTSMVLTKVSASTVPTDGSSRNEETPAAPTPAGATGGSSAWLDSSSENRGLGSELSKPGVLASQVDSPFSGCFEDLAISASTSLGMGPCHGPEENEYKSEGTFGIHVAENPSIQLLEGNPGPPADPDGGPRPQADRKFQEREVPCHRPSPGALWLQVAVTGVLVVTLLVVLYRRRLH

What was measured:
Flag-TRAF2 (mouse) = target: T1, Flag-TRAF2 (mouse) (UniProt P39429); assay: co-IP
T1 sequence: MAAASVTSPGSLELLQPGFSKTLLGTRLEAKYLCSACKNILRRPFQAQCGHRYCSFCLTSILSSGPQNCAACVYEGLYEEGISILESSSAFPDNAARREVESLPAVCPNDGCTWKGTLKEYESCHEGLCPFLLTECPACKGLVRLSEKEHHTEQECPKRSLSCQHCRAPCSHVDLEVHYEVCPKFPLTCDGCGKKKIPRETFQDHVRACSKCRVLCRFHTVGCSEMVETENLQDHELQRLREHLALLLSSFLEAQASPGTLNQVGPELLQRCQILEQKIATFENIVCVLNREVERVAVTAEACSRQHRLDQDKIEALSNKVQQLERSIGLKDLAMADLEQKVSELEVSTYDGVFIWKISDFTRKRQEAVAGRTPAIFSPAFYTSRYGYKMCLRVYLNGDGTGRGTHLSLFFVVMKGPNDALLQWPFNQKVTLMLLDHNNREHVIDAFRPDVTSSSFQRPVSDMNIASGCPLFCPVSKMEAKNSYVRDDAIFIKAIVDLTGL

Flag-TRAF6 (mouse) = target: T2, Flag-TRAF6 (mouse) (UniProt P70196); assay: co-IP
T2 sequence: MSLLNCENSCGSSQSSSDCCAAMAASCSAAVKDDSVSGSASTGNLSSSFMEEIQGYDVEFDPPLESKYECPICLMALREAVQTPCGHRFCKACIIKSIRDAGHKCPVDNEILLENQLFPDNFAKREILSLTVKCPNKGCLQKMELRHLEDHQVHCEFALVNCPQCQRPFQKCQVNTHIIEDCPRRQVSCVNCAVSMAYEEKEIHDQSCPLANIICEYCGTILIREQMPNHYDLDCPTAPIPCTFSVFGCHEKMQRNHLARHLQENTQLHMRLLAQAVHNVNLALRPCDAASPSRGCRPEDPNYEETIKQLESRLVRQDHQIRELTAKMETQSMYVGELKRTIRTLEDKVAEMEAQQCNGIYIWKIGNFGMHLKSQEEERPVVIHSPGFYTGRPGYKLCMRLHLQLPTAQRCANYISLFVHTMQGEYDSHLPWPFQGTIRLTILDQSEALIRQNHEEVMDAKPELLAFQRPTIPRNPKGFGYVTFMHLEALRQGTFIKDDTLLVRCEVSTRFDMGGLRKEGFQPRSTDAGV

Flag-TRAF5 (mouse) = Flag-TRAF5 (mouse) (UniProt P70191); assay: co-IP
[1] = target: Flag-NEMOΔN (NEMO without its N-terminal IKK-binding region, 86-419) (human) (UniProt Q9Y6K9); assay: co-IP; 100,000×g supernatants of Nemo−/− MEFs and of MEFs stably expressing Flag-NEMOΔN mixed 5:1; M2 agarose at 4°C overnight; washed with 10 mM Tris-HCl pH 7.5, 1 M NaCl, 0.1% CHAPS; eluted with Flag peptide; immunoblotting

Row | Molecule | binding (Flag-TRAF2 (mouse)) | binding (Flag-TRAF6 (mouse)) | binding (Flag-TRAF5 (mouse)) | binding [1]
1 | MAVS 2ED (E155D/E457D; human, expressed in MEFs) (from UniProt Q7Z434 1-540) | binds |  |  | 
2 | MAVS Q145N (human, expressed in MEFs) (from UniProt Q7Z434 1-540) |  | binds |  | 
3 | MAVS WT (human, expressed in MEFs) (from UniProt Q7Z434 1-540) | binds | binds | binds | 
4 | B1 |  |  |  | binds
